Construct, isoform or probe ends are uncertain for at least one entry.
Test system: GlnR (Streptomyces hygroscopicus var. ascomyceticus FS35)
Test: EMSA
Settings: 5 ng probe, GlnR titration; EMSA: 5 ng Cy5 probe, 30 min at 28 C, reaction buffer as in Zhang et al. 2019 (composition not given); 6% native PAGE, 0.5x TBE, ice bath, 90 V, 40 min; recombinant protein; residues 1-270; protein details: N-terminal 6xHis; probe letters rebuilt from the primers and the genome

“AGCCAGTGGCGATAAGTGTGGACGTCTCCTCGAAACGACGGCCCGTGCGGGCAGGACATCGGGGGCCGGTATTCGCCTCGAGGTTGGCGCAGCGCCGTTTCAGTCGATGCCACCCGATGTTTCGCCGCAGTGACGAAGGACGCGGGAGTGTTACGTACCGATGAACCGCGGTGAGGAGGGCCACGCCCTCCGTTACCGTGTCGCAACCACCGCGGGGACCGCCTTATCGCCACTGGCT (double strand) [amtB-glnK-glnD promoter probe]”: binds.

— PMC8187598
